Data: the supplement of paper PMC10849652
Some of the results follow.

Amino acid sequences for entries named in this document (tags omitted). A change or cut given only in a name is not applied to a line headed by its entry.
UniProt Q7Z6K3: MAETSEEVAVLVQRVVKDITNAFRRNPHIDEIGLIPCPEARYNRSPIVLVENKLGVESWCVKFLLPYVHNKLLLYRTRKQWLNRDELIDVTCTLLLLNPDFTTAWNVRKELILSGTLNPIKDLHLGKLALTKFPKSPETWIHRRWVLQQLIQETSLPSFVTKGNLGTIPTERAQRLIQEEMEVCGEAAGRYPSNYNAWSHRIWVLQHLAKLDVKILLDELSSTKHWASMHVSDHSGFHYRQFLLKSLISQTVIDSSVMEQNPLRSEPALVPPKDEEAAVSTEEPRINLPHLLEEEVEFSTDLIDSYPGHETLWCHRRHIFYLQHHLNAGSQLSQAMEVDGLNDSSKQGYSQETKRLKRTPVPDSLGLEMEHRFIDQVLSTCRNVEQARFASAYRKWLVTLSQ
UniProt Q6GMV3: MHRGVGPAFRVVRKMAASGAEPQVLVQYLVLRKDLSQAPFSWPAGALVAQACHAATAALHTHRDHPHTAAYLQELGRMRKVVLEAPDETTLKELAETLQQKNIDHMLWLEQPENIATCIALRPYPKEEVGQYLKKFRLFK
UniProt Q969U7: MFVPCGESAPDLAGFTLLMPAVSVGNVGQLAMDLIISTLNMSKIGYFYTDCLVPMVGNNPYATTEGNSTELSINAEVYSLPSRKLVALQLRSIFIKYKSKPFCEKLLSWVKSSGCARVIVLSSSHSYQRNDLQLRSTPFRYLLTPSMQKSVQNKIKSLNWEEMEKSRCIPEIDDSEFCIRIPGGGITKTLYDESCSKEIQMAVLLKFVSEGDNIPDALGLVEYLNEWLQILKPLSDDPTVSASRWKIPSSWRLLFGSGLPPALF
UniProt P60484: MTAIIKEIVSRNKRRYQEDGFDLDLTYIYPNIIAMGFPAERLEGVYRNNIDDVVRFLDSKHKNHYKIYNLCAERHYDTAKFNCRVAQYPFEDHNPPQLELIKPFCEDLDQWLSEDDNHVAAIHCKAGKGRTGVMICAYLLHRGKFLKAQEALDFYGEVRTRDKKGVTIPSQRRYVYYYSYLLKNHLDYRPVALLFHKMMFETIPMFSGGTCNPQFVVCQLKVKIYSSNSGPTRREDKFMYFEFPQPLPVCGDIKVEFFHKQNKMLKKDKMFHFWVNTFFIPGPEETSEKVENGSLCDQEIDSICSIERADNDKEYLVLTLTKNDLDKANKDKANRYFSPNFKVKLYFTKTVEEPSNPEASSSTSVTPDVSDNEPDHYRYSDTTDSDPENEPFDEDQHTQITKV
UniProt Q9P2W1: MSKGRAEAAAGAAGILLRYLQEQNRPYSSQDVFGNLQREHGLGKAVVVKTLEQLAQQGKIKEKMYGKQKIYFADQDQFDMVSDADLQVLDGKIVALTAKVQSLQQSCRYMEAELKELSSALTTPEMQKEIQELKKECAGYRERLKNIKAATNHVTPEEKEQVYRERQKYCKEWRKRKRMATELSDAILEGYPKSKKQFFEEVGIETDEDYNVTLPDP
UniProt Q9Y617: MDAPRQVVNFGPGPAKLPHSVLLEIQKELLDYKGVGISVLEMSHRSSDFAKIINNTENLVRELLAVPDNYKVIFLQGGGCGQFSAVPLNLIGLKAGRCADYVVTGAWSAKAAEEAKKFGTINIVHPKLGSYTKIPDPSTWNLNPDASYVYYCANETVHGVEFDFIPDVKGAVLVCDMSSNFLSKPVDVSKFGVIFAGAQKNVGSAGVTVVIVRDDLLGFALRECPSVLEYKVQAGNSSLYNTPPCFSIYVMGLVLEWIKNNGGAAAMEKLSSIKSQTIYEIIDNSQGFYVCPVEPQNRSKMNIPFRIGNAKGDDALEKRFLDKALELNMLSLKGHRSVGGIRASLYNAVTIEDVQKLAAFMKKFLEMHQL
UniProt Q9BVG9: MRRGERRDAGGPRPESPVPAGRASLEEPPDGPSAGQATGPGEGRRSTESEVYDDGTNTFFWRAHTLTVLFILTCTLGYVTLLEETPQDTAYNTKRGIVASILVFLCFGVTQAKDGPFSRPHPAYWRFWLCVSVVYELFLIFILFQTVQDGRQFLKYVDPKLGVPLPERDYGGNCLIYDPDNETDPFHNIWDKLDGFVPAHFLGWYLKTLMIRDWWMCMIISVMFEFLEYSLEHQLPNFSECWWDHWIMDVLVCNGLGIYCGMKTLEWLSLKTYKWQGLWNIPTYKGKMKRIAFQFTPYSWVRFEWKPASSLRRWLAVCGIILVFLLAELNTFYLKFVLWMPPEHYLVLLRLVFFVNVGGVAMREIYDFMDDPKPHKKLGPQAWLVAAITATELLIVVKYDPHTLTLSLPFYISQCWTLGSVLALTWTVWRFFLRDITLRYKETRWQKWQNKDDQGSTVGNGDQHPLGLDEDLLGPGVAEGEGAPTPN
UniProt Q06323: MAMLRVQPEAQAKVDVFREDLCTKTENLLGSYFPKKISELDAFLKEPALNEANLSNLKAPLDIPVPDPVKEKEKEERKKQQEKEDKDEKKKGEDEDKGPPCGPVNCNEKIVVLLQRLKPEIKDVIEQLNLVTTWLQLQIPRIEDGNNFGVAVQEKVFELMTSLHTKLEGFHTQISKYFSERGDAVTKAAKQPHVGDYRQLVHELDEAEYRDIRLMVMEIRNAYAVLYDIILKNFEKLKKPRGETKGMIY
UniProt Q9UHX1: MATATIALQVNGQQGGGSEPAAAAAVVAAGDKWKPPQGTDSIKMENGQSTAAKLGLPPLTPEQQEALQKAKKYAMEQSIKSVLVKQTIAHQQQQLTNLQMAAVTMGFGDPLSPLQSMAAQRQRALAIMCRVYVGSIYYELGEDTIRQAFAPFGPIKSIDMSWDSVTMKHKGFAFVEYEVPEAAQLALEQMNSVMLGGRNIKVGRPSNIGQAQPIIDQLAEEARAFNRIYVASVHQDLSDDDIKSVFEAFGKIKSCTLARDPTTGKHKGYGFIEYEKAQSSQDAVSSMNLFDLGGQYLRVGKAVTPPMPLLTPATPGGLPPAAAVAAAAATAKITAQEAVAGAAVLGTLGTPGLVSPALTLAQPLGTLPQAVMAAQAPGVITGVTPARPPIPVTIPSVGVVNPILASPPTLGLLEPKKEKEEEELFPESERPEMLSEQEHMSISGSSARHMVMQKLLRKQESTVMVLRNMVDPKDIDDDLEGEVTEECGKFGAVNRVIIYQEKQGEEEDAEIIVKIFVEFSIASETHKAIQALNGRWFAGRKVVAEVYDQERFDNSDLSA
UniProt Q8N0Z8: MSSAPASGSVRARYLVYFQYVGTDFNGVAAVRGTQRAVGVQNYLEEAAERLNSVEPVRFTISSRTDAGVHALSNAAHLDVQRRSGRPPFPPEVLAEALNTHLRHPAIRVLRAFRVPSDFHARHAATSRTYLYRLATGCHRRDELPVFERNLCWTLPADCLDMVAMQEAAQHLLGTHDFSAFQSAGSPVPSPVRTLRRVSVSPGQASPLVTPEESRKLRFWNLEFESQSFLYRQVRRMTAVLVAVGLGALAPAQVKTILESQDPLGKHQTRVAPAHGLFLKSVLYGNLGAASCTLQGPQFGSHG
UniProt Q15185: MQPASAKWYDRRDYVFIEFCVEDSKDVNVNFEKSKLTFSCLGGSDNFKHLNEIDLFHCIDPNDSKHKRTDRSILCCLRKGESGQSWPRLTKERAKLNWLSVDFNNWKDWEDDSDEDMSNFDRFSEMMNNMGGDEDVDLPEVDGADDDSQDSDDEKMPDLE
UniProt Q9UKA9: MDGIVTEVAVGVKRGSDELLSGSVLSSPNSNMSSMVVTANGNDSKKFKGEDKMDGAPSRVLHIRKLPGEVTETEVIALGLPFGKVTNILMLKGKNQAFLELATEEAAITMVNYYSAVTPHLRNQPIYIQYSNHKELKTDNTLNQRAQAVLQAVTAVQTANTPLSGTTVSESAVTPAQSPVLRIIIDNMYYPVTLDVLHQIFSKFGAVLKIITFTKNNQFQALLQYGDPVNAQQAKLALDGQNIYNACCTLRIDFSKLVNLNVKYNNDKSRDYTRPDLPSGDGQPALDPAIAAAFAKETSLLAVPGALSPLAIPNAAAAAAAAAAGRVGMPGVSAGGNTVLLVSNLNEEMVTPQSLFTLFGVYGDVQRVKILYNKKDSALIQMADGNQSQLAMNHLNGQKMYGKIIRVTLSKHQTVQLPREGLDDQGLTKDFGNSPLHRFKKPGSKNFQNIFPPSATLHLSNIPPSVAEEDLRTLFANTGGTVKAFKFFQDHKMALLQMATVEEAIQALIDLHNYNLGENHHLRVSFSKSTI
UniProt O14818: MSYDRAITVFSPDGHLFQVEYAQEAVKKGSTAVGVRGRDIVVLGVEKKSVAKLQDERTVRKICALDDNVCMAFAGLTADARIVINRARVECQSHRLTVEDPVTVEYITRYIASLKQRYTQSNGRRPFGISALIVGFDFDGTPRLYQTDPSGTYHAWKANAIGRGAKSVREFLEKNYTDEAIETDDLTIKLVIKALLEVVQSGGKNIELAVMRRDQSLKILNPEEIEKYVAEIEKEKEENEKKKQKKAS
UniProt Q15269: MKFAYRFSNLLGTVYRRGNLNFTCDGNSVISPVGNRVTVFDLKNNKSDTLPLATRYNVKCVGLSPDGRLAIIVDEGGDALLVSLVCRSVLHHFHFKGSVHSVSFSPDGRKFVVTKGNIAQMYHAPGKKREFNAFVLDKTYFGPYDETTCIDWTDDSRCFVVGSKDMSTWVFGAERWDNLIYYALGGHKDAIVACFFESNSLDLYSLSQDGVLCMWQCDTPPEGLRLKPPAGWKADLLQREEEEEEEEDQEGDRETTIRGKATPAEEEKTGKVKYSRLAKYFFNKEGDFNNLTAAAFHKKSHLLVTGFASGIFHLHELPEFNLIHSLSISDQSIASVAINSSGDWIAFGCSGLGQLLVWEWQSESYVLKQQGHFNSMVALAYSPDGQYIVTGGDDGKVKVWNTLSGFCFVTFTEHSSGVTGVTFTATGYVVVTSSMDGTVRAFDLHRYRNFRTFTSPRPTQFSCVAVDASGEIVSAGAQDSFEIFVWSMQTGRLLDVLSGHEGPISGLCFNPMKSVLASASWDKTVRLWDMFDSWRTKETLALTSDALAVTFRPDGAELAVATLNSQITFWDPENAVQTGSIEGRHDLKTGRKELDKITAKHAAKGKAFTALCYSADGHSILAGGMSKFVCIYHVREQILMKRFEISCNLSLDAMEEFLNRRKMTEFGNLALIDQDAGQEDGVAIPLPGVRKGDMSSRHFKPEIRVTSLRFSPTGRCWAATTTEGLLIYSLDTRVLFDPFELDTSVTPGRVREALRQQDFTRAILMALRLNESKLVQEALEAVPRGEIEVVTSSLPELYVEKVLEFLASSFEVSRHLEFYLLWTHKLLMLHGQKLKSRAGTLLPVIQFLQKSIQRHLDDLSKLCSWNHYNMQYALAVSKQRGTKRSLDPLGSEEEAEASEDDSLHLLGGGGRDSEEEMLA
UniProt P25786: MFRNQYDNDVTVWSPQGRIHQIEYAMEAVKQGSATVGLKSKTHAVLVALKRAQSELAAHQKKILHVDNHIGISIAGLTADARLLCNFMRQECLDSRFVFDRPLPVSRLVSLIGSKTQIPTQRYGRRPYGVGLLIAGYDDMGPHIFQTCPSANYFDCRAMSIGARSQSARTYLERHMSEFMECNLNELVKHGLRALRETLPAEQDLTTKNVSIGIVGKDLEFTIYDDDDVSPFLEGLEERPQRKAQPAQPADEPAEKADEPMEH
UniProt Q8NDX1: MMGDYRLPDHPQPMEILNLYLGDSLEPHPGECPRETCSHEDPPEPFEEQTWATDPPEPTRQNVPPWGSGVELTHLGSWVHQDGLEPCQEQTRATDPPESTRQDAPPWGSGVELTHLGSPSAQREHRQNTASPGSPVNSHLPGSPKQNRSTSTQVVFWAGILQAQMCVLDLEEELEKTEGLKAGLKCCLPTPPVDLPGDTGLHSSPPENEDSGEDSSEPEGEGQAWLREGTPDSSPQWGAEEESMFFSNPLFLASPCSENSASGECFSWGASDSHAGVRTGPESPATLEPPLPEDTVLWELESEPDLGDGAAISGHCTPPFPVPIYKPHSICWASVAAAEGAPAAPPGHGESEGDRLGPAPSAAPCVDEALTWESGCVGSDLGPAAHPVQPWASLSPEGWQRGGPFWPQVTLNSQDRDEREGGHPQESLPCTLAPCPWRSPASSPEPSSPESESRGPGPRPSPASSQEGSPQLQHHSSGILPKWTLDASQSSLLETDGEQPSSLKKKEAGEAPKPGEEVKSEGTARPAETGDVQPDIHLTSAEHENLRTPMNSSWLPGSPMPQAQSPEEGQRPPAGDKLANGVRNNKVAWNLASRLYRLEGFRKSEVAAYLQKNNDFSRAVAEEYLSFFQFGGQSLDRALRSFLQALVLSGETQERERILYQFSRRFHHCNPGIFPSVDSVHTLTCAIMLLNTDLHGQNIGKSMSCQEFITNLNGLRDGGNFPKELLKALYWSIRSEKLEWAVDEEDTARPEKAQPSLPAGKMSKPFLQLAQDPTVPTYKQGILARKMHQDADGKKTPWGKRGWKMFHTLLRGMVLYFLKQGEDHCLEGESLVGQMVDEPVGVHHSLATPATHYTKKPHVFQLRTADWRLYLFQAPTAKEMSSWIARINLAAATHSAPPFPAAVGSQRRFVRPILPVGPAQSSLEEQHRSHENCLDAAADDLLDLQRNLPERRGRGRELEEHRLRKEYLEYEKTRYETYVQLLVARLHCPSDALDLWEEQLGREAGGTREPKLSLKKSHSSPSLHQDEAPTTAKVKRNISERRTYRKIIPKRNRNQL

Tests used:
Test in all cases: log2 fold change, soluble protein after heating vs DMSO (PISA); higher = thermal stabilisation; K562 lysate, 10 uM; active = over 0.2 and 3.5 SD of the protein, either way, in both replicates (recomputed)
lapatinib = compound: CS(=O)(=O)CCNCc1ccc(-c2ccc3ncnc(Nc4ccc(OCc5cccc(F)c5)c(Cl)c4)c3c2)o1 [lapatinib]
Summary of the method: (§1)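 Log-two fold change in thermal stability relative to solvent controls is reported from duplicates. For each sample, crude K562 extract from dounce-homogenised pellets in PBS pH 7.4 with 1 mM MgCl2, at 1 mg/mL protein, was treated with 10 μM compound for 30 min. Aliquots heated for 3 min across 48°C-58°C were pooled, brought to 0.5% NP-40 at 4°C and cleared at 21,000xg for 90 min. The supernatant was quantified by TMTpro 16plex LC-MS/MS with channel sums equalised.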

pictilisib = compound: CS(=O)(=O)N1CCN(Cc2cc3nc(-c4cccc5[nH]ncc45)nc(N4CCOCC4)c3s2)CC1 [pictilisib]
Summary of the method: as §1

crizotinib = compound: C[C@@H](Oc1cc(-c2cnn(C3CCNCC3)c2)cnc1N)c1c(Cl)ccc(F)c1Cl [crizotinib]
Summary of the method: as §1

[1] = compound: C[C@H](C1=CC=C(C=C1)C(=O)NC2=C3C=CNC3=NC=C2)N
Summary of the method: as §1

duvelisib = compound: C[C@H](Nc1ncnc2nc[nH]c12)c1cc2cccc(Cl)c2c(=O)n1-c1ccccc1 [duvelisib]
Summary of the method: as §1

gandotinib = compound: Cc1cc(Nc2cc(CN3CCOCC3)c3nc(C)c(Cc4ccc(Cl)cc4F)n3n2)n[nH]1 [gandotinib]
Summary of the method: as §1

tozasertib = compound: Cc1cc(Nc2cc(N3CCN(C)CC3)nc(Sc3ccc(NC(=O)C4CC4)cc3)n2)n[nH]1 [tozasertib]
Summary of the method: as §1

doramapimod = compound: Cc1ccc(-n2nc(C(C)(C)C)cc2NC(=O)Nc2ccc(OCCN3CCOCC3)c3ccccc23)cc1 [doramapimod]
Summary of the method: as §1

bafetinib = compound: Cc1ccc(NC(=O)c2ccc(CN3CC[C@H](N(C)C)C3)c(C(F)(F)F)c2)cc1Nc1nccc(-c2cncnc2)n1 [bafetinib]
Summary of the method: as §1

[2] = compound: Cc1cccc(CC(=O)N2CCc3c2ccc(-c2cn(C)c4ncnc(N)c24)c3F)n1
Summary of the method: as §1

Measured: log2 fold change

PTAR1 (UniProt Q7Z6K3)
inactive: lapatinib 0.007 | pictilisib 0.011 | crizotinib -0.032 | [1] -0.019 | duvelisib -0.036 | gandotinib 0.008 | tozasertib -0.089 | doramapimod 0.057 | bafetinib 0.082 | [2] 0

PSMC4 (UniProt P43686)
inactive: lapatinib -0.02 | pictilisib 0.016 | crizotinib -0.014 | [1] 0.058 | duvelisib -0.006 | gandotinib -0.084 | tozasertib 0.01 | doramapimod -0.001 | bafetinib -0.028 | [2] -0.048

PTRHD1 (UniProt Q6GMV3)
inactive: lapatinib 0.101 | pictilisib -0.03 | crizotinib -0.031 | [1] 0.18 | duvelisib -0.03 | gandotinib -0.055 | tozasertib 0.063 | doramapimod 0.003 | bafetinib -0.162 | [2] -0.088

PTMA (UniProt P06454)
active: [1] 0.505 | [2] -0.375
inactive: lapatinib -0.059 | pictilisib -0.014 | crizotinib 0.08 | duvelisib 0.009 | gandotinib -0.277 | tozasertib 0.012 | doramapimod -0.031 | bafetinib 0.058

PTPN12 (UniProt Q05209)
inactive: lapatinib 0.019 | pictilisib 0.023 | crizotinib 0.007 | [1] 0.023 | duvelisib 0.025 | gandotinib -0.048 | tozasertib 0.006 | doramapimod -0.009 | bafetinib -0.007 | [2] 0.001

PSMG2 (UniProt Q969U7)
inactive: lapatinib -0.008 | pictilisib -0.041 | crizotinib 0.012 | [1] -0.057 | duvelisib 0.036 | gandotinib 0.029 | tozasertib 0.01 | doramapimod 0.039 | bafetinib 0.065 | [2] -0.01

PTEN isoform 2 (UniProt P60484)
inactive: lapatinib 0.014 | pictilisib 0.023 | crizotinib -0.043 | [1] -0.122 | duvelisib -0.008 | gandotinib 0.075 | tozasertib -0.033 | doramapimod -0.054 | bafetinib -0.008 | [2] -0.004

PSMC3IP (UniProt Q9P2W1)
inactive: lapatinib -0.025 | pictilisib -0.045 | crizotinib 0.032 | [1] -0.038 | duvelisib 0.009 | gandotinib 0.007 | tozasertib -0.007 | doramapimod -0.008 | bafetinib 0.022 | [2] -0.027

PSAT1 (UniProt Q9Y617)
inactive: lapatinib 0.033 | pictilisib 0.015 | crizotinib 0.033 | [1] 0.027 | duvelisib -0.005 | gandotinib -0.006 | tozasertib 0.007 | doramapimod 0.014 | bafetinib 0.12 | [2] -0.013

PTDSS2 (UniProt Q9BVG9)
inactive: lapatinib -0.045 | pictilisib -0.102 | crizotinib 0.015 | [1] -0.248 | duvelisib -0.008 | gandotinib 0.01 | tozasertib 0.001 | doramapimod -0.048 | bafetinib 0.073 | [2] 0.087

PTPN2 (UniProt P17706)
inactive: lapatinib -0.016 | pictilisib -0.01 | crizotinib -0.074 | [1] -0.084 | duvelisib -0.042 | gandotinib -0.013 | tozasertib -0.037 | doramapimod -0.012 | bafetinib -0.077 | [2] 0.071

PSMC6 (UniProt P62333)
inactive: lapatinib -0.023 | pictilisib 0.014 | crizotinib -0.006 | [1] 0.018 | duvelisib 0.023 | gandotinib -0.111 | tozasertib -0.012 | doramapimod -0.003 | bafetinib 0.02 | [2] -0.023

PSME1 (UniProt Q06323)
inactive: lapatinib 0.009 | pictilisib -0.005 | crizotinib 0.065 | [1] 0.037 | duvelisib 0.007 | gandotinib -0.03 | tozasertib 0.008 | doramapimod 0.032 | bafetinib 0.068 | [2] -0.08

PUF60 (UniProt Q9UHX1)
inactive: lapatinib 0 | pictilisib -0.037 | crizotinib 0.036 | [1] 0.092 | duvelisib -0.01 | gandotinib -0.05 | tozasertib -0.017 | doramapimod -0.012 | bafetinib 0.012 | [2] -0.058

PSMC1 (UniProt P62191)
inactive: lapatinib -0.015 | pictilisib 0.012 | crizotinib -0.023 | [1] 0.014 | duvelisib -0.015 | gandotinib -0.043 | tozasertib 0.001 | doramapimod 0.021 | bafetinib -0.002 | [2] 0.011

PUSL1 (UniProt Q8N0Z8)
inactive: lapatinib -0.03 | pictilisib 0.008 | crizotinib 0.009 | [1] 0.005 | duvelisib 0.077 | gandotinib -0.007 | tozasertib 0.052 | doramapimod 0.048 | bafetinib -0.383 | [2] -0.005

PTGES3 (UniProt Q15185)
inactive: lapatinib 0.003 | pictilisib -0.006 | crizotinib -0.005 | [1] 0.089 | duvelisib 0.002 | gandotinib -0.008 | tozasertib -0.048 | doramapimod -0.004 | bafetinib 0.064 | [2] -0.039

PTBP2 isoform 2 (UniProt Q9UKA9)
inactive: lapatinib 0.024 | pictilisib 0.069 | crizotinib 0.032 | [1] 0.11 | duvelisib 0.013 | gandotinib -0.095 | tozasertib -0.018 | doramapimod -0.021 | bafetinib -0.004 | [2] -0.1

PTPN1 (UniProt P18031)
inactive: lapatinib -0.022 | pictilisib -0.022 | crizotinib -0.031 | [1] -0.042 | duvelisib -0.007 | gandotinib -0.055 | tozasertib 0.069 | doramapimod 0.059 | bafetinib -0.029 | [2] 0.062

PSMA7 (UniProt O14818)
inactive: lapatinib -0.017 | pictilisib 0.007 | crizotinib 0.058 | [1] 0.035 | duvelisib -0.031 | gandotinib -0.032 | tozasertib 0.003 | doramapimod -0.046 | bafetinib 0.022 | [2] -0.071

PWP2 (UniProt Q15269)
inactive: lapatinib -0.017 | pictilisib -0.012 | crizotinib 0.001 | [1] -0.016 | duvelisib 0.005 | gandotinib -0.075 | tozasertib -0.013 | doramapimod -0.017 | bafetinib -0.023 | [2] 0.029

PSMG3 (UniProt Q9BT73)
inactive: lapatinib -0.01 | pictilisib 0.024 | crizotinib 0.007 | [1] 0.123 | duvelisib -0.003 | gandotinib -0.044 | tozasertib 0.001 | doramapimod 0.012 | bafetinib -0.029 | [2] -0.024

Two successive records from above:
PTBP2 isoform 2 (UniProt Q9UKA9)
inactive: lapatinib 0.024 | pictilisib 0.069 | crizotinib 0.032 | [1] 0.11 | duvelisib 0.013 | gandotinib -0.095 | tozasertib -0.018 | doramapimod -0.021 | bafetinib -0.004 | [2] -0.1

PTPN1 (UniProt P18031)
inactive: lapatinib -0.022 | pictilisib -0.022 | crizotinib -0.031 | [1] -0.042 | duvelisib -0.007 | gandotinib -0.055 | tozasertib 0.069 | doramapimod 0.059 | bafetinib -0.029 | [2] 0.062

Next part.

PRPH isoform 2 (UniProt P41219)
inactive: lapatinib 0.082 | pictilisib 0.131 | crizotinib 0.05 | [1] 0.03 | duvelisib 0.051 | gandotinib -0.08 | tozasertib 0.096 | doramapimod -0.015 | bafetinib 0.025 | [2] 0.001

PSMB9 (UniProt P28065)
inactive: lapatinib -0.093 | pictilisib 0.028 | crizotinib -0.098 | [1] -0.033 | duvelisib 0.01 | gandotinib 0.013 | tozasertib -0.087 | doramapimod -0.033 | bafetinib -0.25 | [2] 0.022

PRPF8 (UniProt Q6P2Q9)
inactive: lapatinib -0.012 | pictilisib -0.012 | crizotinib -0.024 | [1] 0.013 | duvelisib 0.023 | gandotinib -0.078 | tozasertib -0.002 | doramapimod 0.009 | bafetinib -0.03 | [2] 0.028

PSMD4 (UniProt P55036)
inactive: lapatinib -0.005 | pictilisib -0.005 | crizotinib -0.001 | [1] 0.038 | duvelisib 0.008 | gandotinib 0.003 | tozasertib -0.019 | doramapimod 0.005 | bafetinib 0.022 | [2] -0.026

PRPSAP1 isoform 2 (UniProt Q14558)
inactive: lapatinib 0.006 | pictilisib -0.023 | crizotinib -0.001 | [1] -0.021 | duvelisib 0.004 | gandotinib -0.017 | tozasertib 0.041 | doramapimod -0.013 | bafetinib 0.019 | [2] 0.036

PSMA1 isoform 2 (UniProt P25786)
inactive: lapatinib -0.007 | pictilisib -0.001 | crizotinib 0.037 | [1] 0.009 | duvelisib 0.016 | gandotinib 0.02 | tozasertib -0.005 | doramapimod -0.016 | bafetinib 0.022 | [2] -0.017

PSAP isoform 3 (UniProt P07602)
inactive: lapatinib 0.019 | pictilisib -0.004 | crizotinib 0.07 | [1] -0.004 | duvelisib 0.089 | gandotinib 0.01 | tozasertib 0.023 | doramapimod -0.031 | bafetinib 0.01 | [2] -0.023

PSD4 (UniProt Q8NDX1)
inactive: lapatinib -0.02 | pictilisib -0.026 | crizotinib -0.098 | [1] 0.013 | duvelisib 0.018 | gandotinib -0.075 | tozasertib -0.009 | doramapimod -0.03 | bafetinib -0.109 | [2] -0.003
